According to article PMC6220109:
These are yes or no findings as the source states them, for the method shown. In cells and extracts the contact can be indirect. Binding can be weak; no strength is given. Sequences can lack the tags named with a protein.

Molecular target: T1, His-tagged recombinant PIP region of PfRCC-PIP, wild type (P. falciparum) (UniProt Q8I2V4)
T1 sequence: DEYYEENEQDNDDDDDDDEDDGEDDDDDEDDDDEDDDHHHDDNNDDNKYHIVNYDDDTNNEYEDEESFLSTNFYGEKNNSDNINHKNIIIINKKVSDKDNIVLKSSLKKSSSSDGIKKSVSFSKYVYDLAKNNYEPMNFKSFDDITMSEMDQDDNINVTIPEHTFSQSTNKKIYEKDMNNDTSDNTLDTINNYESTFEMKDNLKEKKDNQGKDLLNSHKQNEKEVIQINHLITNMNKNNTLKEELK
Assay: co-IP; beads coupled to antibodies raised against PfRCC-PIP (or pre-immune serum) incubated with recombinant wild type or mutated PIP region and then with PfPP1-GST; immunoblot with anti-GST; both purified

In the case of PfPP1-GST (P. falciparum) (enzyme), the binding is reported as “binds”.
